We go through two substances from patent US10925852B2, “Talc-bound compositions and uses thereof” (THE TRUSTEES OF COLUMBIA UNIVERSITY IN THE CITY OF NEW YORK, priority 2015, dated 2021).

Where “and” joins values, the source holds several entries; their conditions need not be identical. Equal values may be shown once.

Data set [1] in a line: Avidin and Avidin-Rhodamine binding to talc after PBS and 0.2% EDTA washes, fluorescent microscope (Example 2). Conditions: 100 mg talc; 3× PBS, or 3× PBS then 3× 0.2% EDTA.
Data set [2] can be described thus: Hot and cold Avidin mix binding to talc with controls, absorbance 450 nm (Example 12).
Data set [3] in a line: Binding Avidin to 100 mg sterile talc: saturation and release on washing, Pierce 660 nm total protein assay (Example 3). The note with it: for AVIDIN in supernatant after incubation / Avidin binded to talc / Amount of Avidin removed by wash: 100 mg talc.
A short description of data set [4]: Avidin saturation of 100 mg talc at higher Avidin concentrations, Pierce total protein assay (Example 4). The format is binding.

“Avidin-Rhodamine: Rhodamine Conjugated Avidin from Rockland”: in data set [1], the “binding to talc after washes (fluorescent microscope)” value is on record as “remained bound to talc despite multiple washes”.

On to “Avidin: Avidin from egg white (Sigma, Cat. #: A 9275-100 mg); unlabeled, cold Avidin”, for which the “binding to talc after washes (fluorescent microscope)” value in data set [1] is given as “remained bound to talc despite multiple washes”. Also, the “Efficiency of binding, absorbance 450 nm” value in data set [2] (1 mg talc, Cold Avidin only 100 ug/mL) was 0.31 OD and 0.4373 OD and 0.2746 OD and 0.2226 OD; in data set [2] (1 mg talc, Cold Avidin only 200 ug/mL), 0.27 OD and 0.2701 OD and 0.2684 OD and 0.2574 OD; in data set [2] (1 mg talc, Cold Avidin only 400 ug/mL), 0.3 OD and 0.2408 OD and 0.3108 OD and 0.354 OD and 0.30 OD; in data set [2] (1 mg talc, Cold Avidin only 4 mg/mL), 0.33 OD and 0.3584 OD and 0.3743 OD and 0.2618 OD; in data set [2] (5 mg talc, Cold Avidin only 100 ug/mL) it was 1.38 OD and 1.4221 OD and 1.4705 OD and 1.2587 OD; in data set [2] (5 mg talc, Cold Avidin only 200 ug/mL), 1.4 OD and 1.3784 OD and 1.4737 OD and 1.3586 OD and 1.40 OD. For the same substance, the “Efficiency of binding, absorbance 450 nm” value in data set [2] (5 mg talc, Cold Avidin only 400 ug/mL) was 1.01 OD and 0.9944 OD and 1.357 OD and 0.6924 OD; in data set [2] (5 mg talc, Cold Avidin only 4 mg/mL), 1.23 OD and 0.9106 OD and 1.3512 OD and 1.4221 OD. Also, in data set [2] (HRP-labeled avidin, saturation of binding), the “avidin bound by talc” value is > 2 nanograms of avidin per mg of talc. In addition, the “Saturation of AVIDIN to the combine surface of 100 mg talc” value in data set [3] (198.4 μg Avidin added to reaction) worked out at 2.48 μg/cm^2; in data set [3] (1650.3 μg Avidin added to reaction) it was 6.25 μg/cm^2. Besides, the “AVIDIN in supernatant after incubation” value in data set [3] (198.4 μg AVIDIN in reaction) stood at 13.7 μg/0.5 ml; in data set [3] (198.4 μg AVIDIN in reaction (396.8 μg/ml, 0.5 ml)), 27.4 µg/mL; in data set [3] (1650.3 μg AVIDIN in reaction), 1185 μg/0.5 ml; in data set [3] (1650.3 μg AVIDIN in reaction (3300.6 μg/ml, 0.5 ml)), 2370 µg/mL. Moreover, the “Avidin binded to talc” value amounted to 184.7 µg in data set [3] (198.4 μg AVIDIN in reaction) and 465.3 µg in data set [3] (1650.3 μg AVIDIN in reaction). Besides, the “Amount of Avidin removed by wash” value in data set [3] (1st wash with EDTA, 198.4 μg Avidin) was 15.8 µg/mL; in data set [3] (1st wash with EDTA, 1650.3 μg Avidin), 13.2 µg/mL; in data set [3] (1st wash with PBS, 198.4 μg Avidin), 31.4 µg/mL; in data set [3] (1st wash with PBS, 1650.3 μg Avidin), 307.4 µg/mL; in data set [3] (2nd wash with EDTA, 198.4 μg Avidin), 19.8 µg/mL; in data set [3] (2nd wash with EDTA, 1650.3 μg Avidin), 12.3 µg/mL. The “Amount of Avidin removed by wash” value was found to be 27.6 µg/mL in data set [3] (2nd wash with PBS, 198.4 μg Avidin); 67.3 µg/mL in data set [3] (2nd wash with PBS, 1650.3 μg Avidin); 13 µg/mL in data set [3] (3rd wash with EDTA, 198.4 μg Avidin); 13.2 µg/mL in data set [3] (3rd wash with EDTA, 1650.3 μg Avidin); 32.7 µg/mL in data set [3] (3rd wash with PBS, 198.4 μg Avidin); 40.3 µg/mL in data set [3] (3rd wash with PBS, 1650.3 μg Avidin). Also, the “Avidin binded with talc” value in data set [4] (Avidin 330 μg/ml added) stood at 110.4 µg/mL; in data set [4] (Avidin 3300 μg/ml added), 2452.7 µg/mL; in data set [4] (Avidin 6600 μg/ml added), 4631.5 µg/mL; in data set [4] (Avidin 19800 μg/ml added) it was 12166.7 µg/mL; in data set [4] (Avidin […] added), 7952.7 µg/mL. The Avidin in supernatant was 219.6 μg, ml in data set [4] (Avidin 330 μg/ml added); 847.3 μg, ml in data set [4] (Avidin 3300 μg/ml added); 1968.5 μg, ml in data set [4] (Avidin 6600 μg/ml added); 7633.3 μg, ml in data set [4] (Avidin 19800 μg/ml added); 5247.3 μg, ml in data set [4] (Avidin […] added). In addition, the “Avidin μg/cm2 talc surface” value in data set [4] (Avidin 330 μg/ml added) is 1.5 μg/cm2; in data set [4] (Avidin 3300 μg/ml added), 33.0 μg/cm2 and 33 μg/cm2; in data set [4] (Avidin 6600 μg/ml added), 62.3 μg/cm2; in data set [4] (Avidin 19800 μg/ml added), 163.5 μg/cm2; in data set [4] (Avidin […] added), 106.9 μg/cm2. Besides, in data set [4] (increasing concentrations of Avidin), the “saturation of talc particles” value is listed as “not fully saturated”.
